Measurements: publication doi:10.1101/2020.11.26.384925
No constants are given. Whether binding was seen depends on the method and setting. In cells and extracts the contact can be indirect. Some results given as binding are weak or reduced against the parent protein; the word gives no strength. Where a sequence is shown, tags or fusion partners need not be part of it.

T1: GFP-Vangl2 (Van Gogh-Like protein 2) (mouse) (UniProt Q91ZD4)
T1 sequence: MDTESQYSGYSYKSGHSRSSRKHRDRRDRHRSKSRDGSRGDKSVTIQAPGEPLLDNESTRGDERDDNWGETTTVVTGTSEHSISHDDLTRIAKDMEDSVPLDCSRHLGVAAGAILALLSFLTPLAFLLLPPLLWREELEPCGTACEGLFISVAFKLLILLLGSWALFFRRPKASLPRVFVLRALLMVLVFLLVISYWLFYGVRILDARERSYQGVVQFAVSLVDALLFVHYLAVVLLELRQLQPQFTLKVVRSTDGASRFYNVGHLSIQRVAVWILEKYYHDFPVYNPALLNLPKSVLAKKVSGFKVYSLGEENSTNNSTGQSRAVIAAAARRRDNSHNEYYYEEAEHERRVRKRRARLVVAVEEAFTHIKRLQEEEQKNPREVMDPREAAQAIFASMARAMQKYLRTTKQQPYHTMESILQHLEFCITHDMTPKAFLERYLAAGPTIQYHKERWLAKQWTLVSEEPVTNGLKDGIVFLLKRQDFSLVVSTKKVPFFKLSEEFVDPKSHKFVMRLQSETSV

T2: MuSK-HA (muscle specific kinase) (rat) (UniProt Q62838)
T2 sequence: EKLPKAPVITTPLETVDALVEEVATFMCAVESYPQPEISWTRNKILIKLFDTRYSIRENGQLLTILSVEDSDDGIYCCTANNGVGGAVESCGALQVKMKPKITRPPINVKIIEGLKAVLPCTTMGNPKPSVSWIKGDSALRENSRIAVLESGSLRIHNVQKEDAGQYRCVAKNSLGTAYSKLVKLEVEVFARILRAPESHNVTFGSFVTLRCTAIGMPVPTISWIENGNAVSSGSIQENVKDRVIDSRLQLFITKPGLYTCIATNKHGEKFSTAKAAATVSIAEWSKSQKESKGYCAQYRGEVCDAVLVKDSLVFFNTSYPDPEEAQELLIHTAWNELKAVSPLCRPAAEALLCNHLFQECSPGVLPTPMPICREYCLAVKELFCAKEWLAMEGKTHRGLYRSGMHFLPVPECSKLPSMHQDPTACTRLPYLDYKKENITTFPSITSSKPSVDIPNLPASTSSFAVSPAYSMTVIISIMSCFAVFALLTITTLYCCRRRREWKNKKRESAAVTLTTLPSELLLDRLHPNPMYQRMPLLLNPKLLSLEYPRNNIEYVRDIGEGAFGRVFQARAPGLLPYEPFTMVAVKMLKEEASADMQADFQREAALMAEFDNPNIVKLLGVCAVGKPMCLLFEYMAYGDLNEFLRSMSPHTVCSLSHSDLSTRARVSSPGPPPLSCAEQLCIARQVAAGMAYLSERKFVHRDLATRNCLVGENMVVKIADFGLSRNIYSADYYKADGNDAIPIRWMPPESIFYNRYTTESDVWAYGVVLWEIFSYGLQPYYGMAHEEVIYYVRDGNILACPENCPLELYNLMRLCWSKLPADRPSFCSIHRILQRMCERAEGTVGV


Legend:
[1] = target: T1, GFP-Vangl2 (Van Gogh-Like protein 2) (mouse); experiment: co-IP
[2] = target: T1, GFP-Vangl2 (Van Gogh-Like protein 2) (mouse); experiment: proximity ligation
[3] = target: T2, MuSK-HA (muscle specific kinase) (rat); experiment: co-IP

Binder | binding [1] | binding [2] | binding [3]
MuSK-HA (muscle specific kinase) (receptor, UniProt Q62838 22-868) EKLPKAPVITTPLETVDALVEEVATFMCAVESYPQPEISWTRNKILIKLFDTRYSIRENGQLLTILSVEDSDDGIYCCTANNGVGGAVESCGALQVKMKPKITRPPINVKIIEGLKAVLPCTTMGNPKPSVSWIKGDSALRENSRIAVLESGSLRIHNVQKEDAGQYRCVAKNSLGTAYSKLVKLEVEVFARILRAPESHNVTFGSFVTLRCTAIGMPVPTISWIENGNAVSSGSIQENVKDRVIDSRLQLFITKPGLYTCIATNKHGEKFSTAKAAATVSIAEWSKSQKESKGYCAQYRGEVCDAVLVKDSLVFFNTSYPDPEEAQELLIHTAWNELKAVSPLCRPAAEALLCNHLFQECSPGVLPTPMPICREYCLAVKELFCAKEWLAMEGKTHRGLYRSGMHFLPVPECSKLPSMHQDPTACTRLPYLDYKKENITTFPSITSSKPSVDIPNLPASTSSFAVSPAYSMTVIISIMSCFAVFALLTITTLYCCRRRREWKNKKRESAAVTLTTLPSELLLDRLHPNPMYQRMPLLLNPKLLSLEYPRNNIEYVRDIGEGAFGRVFQARAPGLLPYEPFTMVAVKMLKEEASADMQADFQREAALMAEFDNPNIVKLLGVCAVGKPMCLLFEYMAYGDLNEFLRSMSPHTVCSLSHSDLSTRARVSSPGPPPLSCAEQLCIARQVAAGMAYLSERKFVHRDLATRNCLVGENMVVKIADFGLSRNIYSADYYKADGNDAIPIRWMPPESIFYNRYTTESDVWAYGVVLWEIFSYGLQPYYGMAHEEVIYYVRDGNILACPENCPLELYNLMRLCWSKLPADRPSFCSIHRILQRMCERAEGTVGV | binds | binds | 
GFP-Vangl2 (Van Gogh-Like protein 2) (protein, UniProt Q91ZD4 1-521) MDTESQYSGYSYKSGHSRSSRKHRDRRDRHRSKSRDGSRGDKSVTIQAPGEPLLDNESTRGDERDDNWGETTTVVTGTSEHSISHDDLTRIAKDMEDSVPLDCSRHLGVAAGAILALLSFLTPLAFLLLPPLLWREELEPCGTACEGLFISVAFKLLILLLGSWALFFRRPKASLPRVFVLRALLMVLVFLLVISYWLFYGVRILDARERSYQGVVQFAVSLVDALLFVHYLAVVLLELRQLQPQFTLKVVRSTDGASRFYNVGHLSIQRVAVWILEKYYHDFPVYNPALLNLPKSVLAKKVSGFKVYSLGEENSTNNSTGQSRAVIAAAARRRDNSHNEYYYEEAEHERRVRKRRARLVVAVEEAFTHIKRLQEEEQKNPREVMDPREAAQAIFASMARAMQKYLRTTKQQPYHTMESILQHLEFCITHDMTPKAFLERYLAAGPTIQYHKERWLAKQWTLVSEEPVTNGLKDGIVFLLKRQDFSLVVSTKKVPFFKLSEEFVDPKSHKFVMRLQSETSV |  |  | binds
